This passage reports binding results from article doi:10.1101/2020.11.11.378711.

Sequences of proteins named here, by UniProt entry; tags and fusion partners are left off.
UniProt Q15005: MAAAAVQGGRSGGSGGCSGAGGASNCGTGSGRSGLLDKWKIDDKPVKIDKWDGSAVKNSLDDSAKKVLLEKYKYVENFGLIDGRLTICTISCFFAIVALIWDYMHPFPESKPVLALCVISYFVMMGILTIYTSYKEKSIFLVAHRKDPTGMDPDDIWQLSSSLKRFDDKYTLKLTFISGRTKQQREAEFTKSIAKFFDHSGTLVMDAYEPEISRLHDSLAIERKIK

These are yes or no findings as the source states them, for the method shown. Binding seen in cells or lysates may run through a third protein. A yes stands for co-enrichment or nearness to the bait. Other partners may have been found. Sequences can lack the tags named with a protein.

This test has as its target T1, SEC11C-FLAG (SEC11C, SPC21, with a C-terminal FLAG tag) (human) (UniProt Q9BY50).
T1 sequence: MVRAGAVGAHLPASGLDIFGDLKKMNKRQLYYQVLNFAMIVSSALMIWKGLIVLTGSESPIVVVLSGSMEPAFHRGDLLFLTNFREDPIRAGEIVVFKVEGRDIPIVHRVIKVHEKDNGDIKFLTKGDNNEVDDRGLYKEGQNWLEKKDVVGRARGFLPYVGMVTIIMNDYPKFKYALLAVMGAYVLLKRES
The test can be described thus: affinity purification with mass spectrometry.

In the case of “SPC25 (SPCS2), accessory subunit of the human signal peptidase complex (from UniProt Q15005 1-226)”, the binding result is “binds”.
